## Melanoma cell counts after drug treatment

Data from the primary screen of doi:10.1371/journal.pone.0140310, rounded.

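Human melanoma cells were exposed to two drugs together for 72 h in 1,536-well plates and read by automated microscopy after fixing and staining. Each value is the count of nuclei relative to DMSO-treated wells, in %, so that 100 equals the control. Every drug was used at one fixed concentration, the higher of two screened. No replicate spread is given; individual values may be noisy.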
This is part of the screen, not chosen by result.

Drugs:
perifosine (2 µM): CCCCCCCCCCCCCCCCCCOP(=O)([O-])OC1CC[N+](C)(C)CC1
KU-55933 (5 µM): O=c1cc(-c2cccc3c2Sc2ccccc2S3)oc(N2CCOCC2)c1
PF-562271 (0.4 µM): CN(c1ncccc1CNc1nc(Nc2ccc3c(c2)CC(=O)N3)ncc1C(F)(F)F)S(C)(=O)=O
KU-0063794 (0.1 µM): COc1ccc(-c2ccc3c(N4CCOCC4)nc(N4C[C@@H](C)O[C@@H](C)C4)nc3n2)cc1CO
cediranib (2 µM): COc1cc2c(Oc3ccc4[nH]c(C)cc4c3F)ncnc2cc1OCCCN1CCCC1
BI-78D3 (1 µM): O=c1[nH]nc(Sc2ncc([N+](=O)[O-])s2)n1-c1ccc2c(c1)OCCO2
GW441756 (2 µM): Cn1cc(/C=C2\C(=O)Nc3cccnc32)c2ccccc21
GW9662 (10 µM): O=C(Nc1ccccc1)c1cc([N+](=O)[O-])ccc1Cl
pazopanib (2 µM): Cc1ccc(Nc2nccc(N(C)c3ccc4c(C)n(C)nc4c3)n2)cc1S(N)(=O)=O
selumetinib (0.075 µM): Cn1cnc2c(F)c(Nc3ccc(Br)cc3Cl)c(C(=O)NOCCO)cc21
TCS401 (8.33 µM): O=C(O)C(=O)Nc1sc2c(c1C(=O)O)CCNC2
etoposide (0.1 µM): COc1cc([C@@H]2c3cc4c(cc3[C@@H](O[C@@H]3O[C@@H]5CO[C@@H](C)O[C@H]5[C@H](O)[C@H]3O)[C@H]3COC(=O)[C@H]23)OCO4)cc(OC)c1O
CHIR-265 (0.4 µM): Cn1c(Nc2ccc(C(F)(F)F)cc2)nc2cc(Oc3ccnc(-c4ncc(C(F)(F)F)[nH]4)c3)ccc21
FH535 (5 µM): Cc1cc([N+](=O)[O-])ccc1NS(=O)(=O)c1cc(Cl)ccc1Cl
fingolimod (10 µM): CCCCCCCCc1ccc(CCC(N)(CO)CO)cc1
ENMD-2076 (0.2 µM): Cc1cc(Nc2cc(N3CCN(C)CC3)nc(/C=C/c3ccccc3)n2)n[nH]1
FK866 (0.05 µM): O=C(/C=C/c1cccnc1)NCCCCC1CCN(C(=O)c2ccccc2)CC1
BMS-536924 (1 µM): Cc1cc(N2CCOCC2)cc2[nH]c(-c3c(NC[C@@H](O)c4cccc(Cl)c4)cc[nH]c3=O)nc12
decitabine (0.5 µM): Nc1ncn([C@H]2C[C@H](O)[C@@H](CO)O2)c(=O)n1
pioglitazone (10 µM): CCc1ccc(CCOc2ccc(CC3SC(=O)NC3=O)cc2)nc1 (stereo not shown)
nutlin-3 (0.5 µM): COc1ccc(C2=N[C@@H](c3ccc(Cl)cc3)[C@@H](c3ccc(Cl)cc3)N2C(=O)N2CCNC(=O)C2)c(OC(C)C)c1

{"drugs": "selumetinib + KU-55933", "WM3619": 54.0, "WM451Lu": 71.5}
{"drugs": "nutlin-3 + TCS401", "WM3619": 79.0, "WM451Lu": 111}
{"drugs": "BI-78D3 + FK866", "WM3619": 79.3, "WM451Lu": 63.9}
{"drugs": "fingolimod + TCS401", "WM3619": 2.9, "WM451Lu": 25.0}
{"drugs": "ENMD-2076 + FH535", "WM3619": 58.5, "WM451Lu": 87.3}
{"drugs": "etoposide + GW9662", "WM3619": 39.1, "WM451Lu": 63.6}
{"drugs": "GW9662 + TCS401", "WM3619": 62.7, "WM451Lu": 90.0}
{"drugs": "pazopanib + perifosine", "WM3619": 90.8, "WM451Lu": 63.1}
{"drugs": "ENMD-2076 + GW441756", "WM3619": 91.4, "WM451Lu": 83.8}
{"drugs": "pioglitazone + FH535", "WM3619": 77.5, "WM451Lu": 83.6}
{"drugs": "CHIR-265 + etoposide", "WM3619": 41.0, "WM451Lu": 52.4}
{"drugs": "pazopanib + BI-78D3", "WM3619": 87.8, "WM451Lu": 98.3}
{"drugs": "TCS401 + PF-562271", "WM3619": 85.9, "WM451Lu": 85.1}
{"drugs": "decitabine + GW9662", "WM3619": 64.8, "WM451Lu": 81.5}
{"drugs": "GW441756 + perifosine", "WM3619": 74.3, "WM451Lu": 109}
{"drugs": "cediranib + BMS-536924", "WM3619": 82.5, "WM451Lu": 78.1}
{"drugs": "GW9662 + KU-55933", "WM3619": 63.9, "WM451Lu": 77.7}
{"drugs": "KU-0063794 + fingolimod", "WM3619": 3.1, "WM451Lu": 12.1}

For reference, 2 entries once more:

Drugs,WM3619,WM451Lu
pazopanib + BI-78D3,87.8,98.3
fingolimod + TCS401,2.9,25.0